Counter-ions that a name gives are not always drawn. The list shows a part of the results. This data set is noisy: repeats of one test often differ as much as different tests do.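 JEG3 cells stably carry tetracycline-induced wild-type human LRH-1, a heavily sumoylated nuclear receptor. APOC3 and MUC1 are SUMO-sensitive transcripts, raised by SUMO-less LRH-1 or UBC9 knockdown, measured by RT-qPCR against TBP and DMSO controls. A robust Z-score above +2 or below -2 marked a primary hit before toxicity and TBP filtering.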
system: JEG3 expressing hLRH-1; experiment: APOC3 transcript change (ddCt vs TBP and DMSO), Z-score over library; higher = higher APOC3 expression; details: 10 µM; time (hr): 24

Row | Structure (SMILES) | APOC3 transcript change (Z-score)
1 | NN=C(N)N [Aminoguanidine hemisulfate] | -0.189
2 | CN1C2CCC1CC(OC(=O)C(CO)c1ccccc1)C2 (centres undefined) [Atropine sulfate] | -1.01
3 | CCC1(CC)C(=O)C=CNC1=O [pyrithyldione] | 0.281
4 | O=[N+]([O-])c1ccc([As](=O)(O)O)cc1 [nitarsone] | 0.326
5 | CC[C@H]1CN2CCc3cc(OC)c(OC)cc3C2C[C@@H]1CC1NCCc2cc(OC)c(OC)cc21 (some centres undefined) [emetine] | -3.06
6 | CC(C)c1c(CN(C)C(C)Cc2ccccc2)n(C)n(-c2ccccc2)c1=O (centres undefined) [famprofazone] | -0.283
7 | CN1CC(CNC(=O)OCc2ccccc2)C[C@H]2c3cccc4c3c(cn4C)CC21 (stereo in doubt) [metergoline] | 0.0416
8 | CCC1(CC)C(=O)NC(=O)NC1=O [barbital] | -0.964
9 | O=C1CCO1 [beta-propiolactone] | 0.324
10 | CCCCCCCCC(=O)NCc1ccc(O)c(OC)c1 [N-Vanillylnonanamide] | 0.905
11 | Cc1cccc(C)c1NC(=O)CN1CCCC1=O [nefiracetam] | 0.0257
12 | NCCCNCCSP(=O)(O)O [amifostine] | -0.664
13 | COc1ccc(OC)c(C(O)C(C)N)c1 (centres undefined) [Methoxamine hydrochloride] | 0.212
14 | C[C@]12CCC(=O)C=C1C=CC1C2CC[C@@]2(C)C1CC[C@@]2(O)CCC(=O)O (some centres undefined) [canrenoic acid, potassium salt] | -0.225
15 | CCCCCCCCCCNCCC.CCCN.CCCNCCCCCC[N+](C)(C)C.ClCC1CO1 [colesevalam hydrochloride (high mol wt copolymer @10mg/ml)] | -0.241
16 | CN(C)C(=O)Oc1ccc[n+](C)c1 [Pyridostigmine bromide] | 0.492
17 | O=C(O)CCCO [sodium oxybate] | 0.4
18 | CN1[C@H]2C[C@H](OC(=O)[C@H](CO)c3ccccc3)C[C@@H]1[C@@H](O)C2 [anisodamine hydrobromide] | -1.28
19 | C[C@H](N)[C@H](O)c1ccccc1 [L(-)-Norephedrine] | 0.0893
20 | CN1CCc2cc3c(cc2C1O)OCO3 (centres undefined) [hydrastinine hydrochloride] | -0.873
21 | C[C@@H]1CC[C@H]2[C@@H](C)C(=O)O[C@@H]3O[C@@]4(C)CC[C@@H]1[C@]32OO4 [artemisinin] | -1
22 | CN1C(=O)CCS(=O)(=O)C1c1ccc(Cl)cc1 (centres undefined) [Chlomezanone] | -0.0954
23 | CNC(C)(C)Cc1ccccc1 [mephentermine sulfate] | -0.00524
24 | C#CC1(O)CCC2C3CCC4=CC(=O)CCC4(C)C3CCC21C (centres undefined) [ethisterone] | 0.874
25 | CC(C)C[C@H]1C(=O)N2CCC[C@H]2[C@]2(O)O[C@](NC(=O)[C@@H]3C=C4c5cccc6[nH]c(Br)c(c56)C[C@H]4N(C)C3)(C(C)C)C(=O)N12 [bromocriptine mesylate] | 0.479
26 | CN1CCC[C@@H]1Cc1c[nH]c2cc(CCS(=O)(=O)c3ccccc3)ccc12 [eletriptan hydrobromide] | -0.606
27 | CC(C)=CC1C(C(=O)OCc2cccc(Oc3ccccc3)c2)C1(C)C (centres undefined) [phenothrin] | -1.03
28 | CNCC(O)c1ccc(O)cc1 (centres undefined) [oxedrine] | -0.818
29 | CC[C@@H](CO)NC(=O)[C@@H]1C=C2c3cccc4[nH]cc(c34)C[C@H]2N(C)C1 [methylergonovine maleate] | 0.479

Copied from above, compounds 27–28
Row | Structure (SMILES) | APOC3 transcript change (Z-score)
27 | CC(C)=CC1C(C(=O)OCc2cccc(Oc3ccccc3)c2)C1(C)C (centres undefined) [phenothrin] | -1.03
28 | CNCC(O)c1ccc(O)cc1 (centres undefined) [oxedrine] | -0.818
